Test system: eIF2-GTP-Met-tRNAi ternary complex
Test: Ternary complex assay (dual luciferase, firefly/renilla ratio) in stable KLN-tTA/pBISA-DL(ATF-4) cells; HTS and hit confirmation
Type: cell-based, mouse
Design: unit not given here
Conditions: confirmed hits of the screen (Table 5)
Text: For assay development, a bi-directional plasmid was designed in which a common promoter/enhancer complex drives the transcription of firefly luciferase (F-luc) ORF fused to the 5′ untranslated region (UTR) of ATF-4, and of the renilla luciferase (R-luc) ORF fused to a 90-nucleotide 5′ UTR derived from the plasmid (FIG. 6A). Because the tetracycline-regulated transactivator ((tTA), required for driving transcription from this vector) is not normally expressed in the mammalian cells, stable KLN cancer cells were constructed that expressed tTA (KLN-tTA).
The KLN-tTA colonies that drove expression of reporter genes from pBISA-DL plasmid were selected by transient transfection and dual luciferase assay. […]
Screening was conducted in 384 well white opaque plates (Nalge Nunc), 100 μl volume RPMI+10% fetal bovine serum. […] Firefly luciferase reporter activity was then read by the addition of thirty microliters of Dual Glo Luciferase reagent (Promega), followed by one hour incubation at room temperature to allow for adequate signal buildup. Luminescence counting was conducted on a Microbeta Trilux using a 1 second read time. Renilla luciferase reporter activity was measured following addition of 30 μl Stop and Glo Luciferase reagent (Promega) and incubation identical to the one carried out for the firefly luciferase one. […]

With `O=C(/C=C/c1ccccc1)Nc1ccccc1Cl` [Compound 191390] the “Activity 5 uM” value (compound at 5 uM) was 3.71 and the “Activity 10 uM” value (compound at 10 uM) was 4.295.
